# Experimental data: the supplement of paper PMC8728848
# Some of the results follow.
# B1: Langerin K299A/K313A (Homo sapiens), Q9UJ71 (protein)
# chain: STLNAQIPELKSDLEKASALNTKIRALQGSLENMSKLLKRQNDILQVVSQGWKYFKGNFYYFSLIPKTWYSAEQFCVSRNSHLTSVTSESEQEFLYKTAGGLIYWIGLTKAGMEGDWSWVDDTPFNKVQSARFWIPGEPNNAGNNEHCGNIAAPSLQAWNDAPCDATFLFICKRPYVPSEP
# How the values were obtained:
# Assay in all cases: glycan array binding signal (z-score within array); higher = stronger binding
# Conditions in all cases: glycan notation: IUPAC condensed, linker removed
# [1] = target: GlcNAc(b1-3)Gal(b1-4)GlcNAc(b1-3)Gal(b1-4)GlcNAc(b1-2)Man(a1-3)[GlcNAc(b1-3)Gal(b1-4)GlcNAc(b1-3)Gal(b1-4)GlcNAc(b1-2)Man(a1-6)]Man(b1-4)GlcNAc(b1-4)[Fuc(a1-6)]GlcNAc
# How it was run: (§1)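 Glycan array data were curated from 3228 arrays in the Consortium for Functional Glycomics database and kept only where the protein sequence was available. Glycan names were converted to IUPAC-condensed notation, and columns mapping to the same glycan were averaged. The binding signal is a within-array Z-score, averaged across arrays of the same protein sequence at different concentrations or buffers and across linkers. Negative Z-scores can be read as non-binding.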
# [2] = target: GlcNAc(b1-3)Gal(b1-4)GlcNAc(b1-3)Gal(b1-4)GlcNAc(b1-2)[GlcNAc(b1-3)Gal(b1-4)GlcNAc(b1-3)Gal(b1-4)GlcNAc(b1-6)]Man(a1-6)[GlcNAc(b1-3)Gal(b1-4)GlcNAc(b1-3)Gal(b1-4)GlcNAc(b1-2)Man(a1-3)]Man(b1-4)GlcNAc(b1-4)[Fuc(a1-6)]GlcNAc
# How it was run: as §1
# [3] = target: GlcNAc(b1-3)Gal(b1-4)GlcNAc(b1-3)Gal(b1-4)GlcNAc(b1-3)Gal(b1-4)GlcNAc(b1-2)Man(a1-3)[GlcNAc(b1-3)Gal(b1-4)GlcNAc(b1-3)Gal(b1-4)GlcNAc(b1-3)Gal(b1-4)GlcNAc(b1-2)Man(a1-6)]Man(b1-4)GlcNAc(b1-4)GlcNAc
# How it was run: as §1
# [4] = target: GlcNAc(b1-3)Gal(b1-4)GlcNAc(b1-3)Gal(b1-4)GlcNAc(b1-3)Gal(b1-4)GlcNAc(b1-2)Man(a1-3)[GlcNAc(b1-3)Gal(b1-4)GlcNAc(b1-3)Gal(b1-4)GlcNAc(b1-3)Gal(b1-4)GlcNAc(b1-2)Man(a1-6)]Man(b1-4)GlcNAc(b1-4)[Fuc(a1-6)]GlcNAc
# How it was run: as §1
# [5] = target: GlcNAc(b1-3)Gal(b1-4)GlcNAc(b1-3)Gal(b1-4)GlcNAc(b1-3)Gal(b1-4)GlcNAc(b1-2)[GlcNAc(b1-3)Gal(b1-4)GlcNAc(b1-3)Gal(b1-4)GlcNAc(b1-3)Gal(b1-4)GlcNAc(b1-6)]Man(a1-6)[GlcNAc(b1-3)Gal(b1-4)GlcNAc(b1-3)Gal(b1-4)GlcNAc(b1-3)Gal(b1-4)GlcNAc(b1-2)Man(a1-3)]Man(b1-4)GlcNAc(b1-4)[Fuc(a1-6)]GlcNAc
# How it was run: as §1
# [6] = target: GlcNAc(b1-3)Gal(b1-4)GlcNAc(b1-3)Gal(b1-4)GlcNAc(b1-3)Gal(b1-4)GlcNAc(b1-3)Gal(b1-4)GlcNAc(b1-2)Man(a1-3)[GlcNAc(b1-3)Gal(b1-4)GlcNAc(b1-3)Gal(b1-4)GlcNAc(b1-3)Gal(b1-4)GlcNAc(b1-3)Gal(b1-4)GlcNAc(b1-2)Man(a1-6)]Man(b1-4)GlcNAc(b1-4)GlcNAc
# How it was run: as §1
# [7] = target: GlcNAc(b1-3)Gal(b1-4)GlcNAc(b1-3)Gal(b1-4)GlcNAc(b1-3)Gal(b1-4)GlcNAc(b1-3)Gal(b1-4)GlcNAc(b1-2)Man(a1-3)[GlcNAc(b1-3)Gal(b1-4)GlcNAc(b1-3)Gal(b1-4)GlcNAc(b1-3)Gal(b1-4)GlcNAc(b1-3)Gal(b1-4)GlcNAc(b1-2)Man(a1-6)]Man(b1-4)GlcNAc(b1-4)[Fuc(a1-6)]GlcNAc
# How it was run: as §1
# [8] = target: GlcNAc(b1-3)Gal(b1-4)GlcNAc(b1-3)Gal(b1-4)GlcNAc(b1-3)Gal(b1-4)GlcNAc(b1-3)Gal(b1-4)GlcNAc(b1-2)[GlcNAc(b1-3)Gal(b1-4)GlcNAc(b1-3)Gal(b1-4)GlcNAc(b1-3)Gal(b1-4)GlcNAc(b1-3)Gal(b1-4)GlcNAc(b1-6)]Man(a1-6)[GlcNAc(b1-3)Gal(b1-4)GlcNAc(b1-3)Gal(b1-4)GlcNAc(b1-3)Gal(b1-4)GlcNAc(b1-3)Gal(b1-4)GlcNAc(b1-2)Man(a1-3)]Man(b1-4)GlcNAc(b1-4)[Fuc(a1-6)]GlcNAc
# How it was run: as §1
# [9] = target: GlcNAc(b1-3)Gal(b1-4)GlcNAc(b1-3)Gal(b1-4)GlcNAc(b1-3)GalNAc
# How it was run: as §1
# [10] = target: GlcNAc(b1-3)Gal(b1-4)GlcNAc(b1-3)GalNAc
# How it was run: as §1
# [11] = target: GlcNAc(b1-3)Gal(b1-4)GlcNAc(b1-3)[GlcNAc(b1-3)Gal(b1-4)GlcNAc(b1-3)]GalNAc
# How it was run: as §1
# [12] = target: GlcNAc(b1-3)Gal(b1-4)GlcNAc(b1-6)[Gal(b1-3)]GalNAc
# How it was run: as §1
# [13] = target: GlcNAc(b1-3)Gal(b1-4)GlcNAc(b1-6)[GlcNAc(b1-3)Gal(b1-3)]GalNAc
# How it was run: as §1
# [14] = target: GlcNAc(b1-3)Gal(b1-4)GlcNAc(b1-6)[GlcNAc(b1-3)]Gal(b1-4)GlcNAc
# How it was run: as §1
# [15] = target: GlcNAc(b1-3)GalNAc
# How it was run: as §1
# [16] = target: GlcNAc(b1-3)Man
# How it was run: as §1
# [17] = target: GlcNAc(b1-3)[GlcNAc(b1-4)][GlcNAc(b1-6)]GlcNAc
# How it was run: as §1
# [18] = target: GlcNAc(b1-3)[GlcNAc(b1-6)]Gal(b1-4)GlcNAc
# How it was run: as §1
# [19] = target: GlcNAc(b1-3)[GlcNAc(b1-6)]GalNAc
# How it was run: as §1
# [20] = target: GlcNAc(b1-4)Gal(b1-4)GlcNAc
# How it was run: as §1
# [21] = target: GlcNAc(b1-4)GlcNAc
# How it was run: as §1
# [22] = target: GlcNAc(b1-4)GlcNAc(b1-4)GlcNAc
# How it was run: as §1
# [23] = target: GlcNAc(b1-4)GlcNAc(b1-4)GlcNAc(b1-4)GlcNAc(b1-4)GlcNAc
# How it was run: as §1
binder,measurement,setting,value
B1,glycan array binding signal (z-score),[1],1.26
same,glycan array binding signal (z-score),[2],2.02
same,glycan array binding signal (z-score),[3],-0.025
same,glycan array binding signal (z-score),[4],5.83
same,glycan array binding signal (z-score),[5],0.585
same,glycan array binding signal (z-score),[6],2.75
same,glycan array binding signal (z-score),[7],0.099
same,glycan array binding signal (z-score),[8],1.84
same,glycan array binding signal (z-score),[9],-0.424
same,glycan array binding signal (z-score),[10],-0.789
same,glycan array binding signal (z-score),[11],-0.889
same,glycan array binding signal (z-score),[12],-0.731
same,glycan array binding signal (z-score),[13],-0.82
same,glycan array binding signal (z-score),[14],-1.35
same,glycan array binding signal (z-score),[15],-0.334
same,glycan array binding signal (z-score),[16],-0.284
same,glycan array binding signal (z-score),[17],-0.759
same,glycan array binding signal (z-score),[18],-0.688
same,glycan array binding signal (z-score),[19],0.112
same,glycan array binding signal (z-score),[20],-0.886
same,glycan array binding signal (z-score),[21],-0.55
same,glycan array binding signal (z-score),[22],-0.589
same,glycan array binding signal (z-score),[23],0.378

# Fetched one by one from above (2):
binder,measurement,setting,value
B1,glycan array binding signal (z-score),[1],1.26
same,glycan array binding signal (z-score),[18],-0.688
